Results are given in words; binding and its absence hold for the method and conditions named. In cells and extracts the contact can be indirect. A yes stands for co-enrichment or nearness to the bait. Other partners may have been found. Sequences can lack the tags named with a protein.

Chains of the proteins cited; added tags and fusions are not shown.
UniProt P41819: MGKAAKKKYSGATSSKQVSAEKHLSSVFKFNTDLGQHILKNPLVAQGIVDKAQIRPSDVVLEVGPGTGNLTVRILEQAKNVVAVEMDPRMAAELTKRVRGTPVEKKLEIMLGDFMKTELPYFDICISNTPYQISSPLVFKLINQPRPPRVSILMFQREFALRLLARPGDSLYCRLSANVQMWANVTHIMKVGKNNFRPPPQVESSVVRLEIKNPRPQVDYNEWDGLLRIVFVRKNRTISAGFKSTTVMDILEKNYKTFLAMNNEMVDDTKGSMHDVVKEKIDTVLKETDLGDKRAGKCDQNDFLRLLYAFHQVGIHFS
UniProt P15646: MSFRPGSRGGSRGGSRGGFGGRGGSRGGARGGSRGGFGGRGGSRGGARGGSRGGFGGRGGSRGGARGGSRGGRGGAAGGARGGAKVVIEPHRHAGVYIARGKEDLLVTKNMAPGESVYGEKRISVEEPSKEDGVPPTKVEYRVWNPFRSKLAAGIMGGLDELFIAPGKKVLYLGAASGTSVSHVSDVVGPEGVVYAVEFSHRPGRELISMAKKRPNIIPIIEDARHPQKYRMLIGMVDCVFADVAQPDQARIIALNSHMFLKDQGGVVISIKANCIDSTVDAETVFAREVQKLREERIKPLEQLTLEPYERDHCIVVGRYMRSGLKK

The source of these data is publication PMC4256259.

In one assay the target is T1, Pwp2-GFP (S. cerevisiae) (UniProt P25635).
T1 sequence: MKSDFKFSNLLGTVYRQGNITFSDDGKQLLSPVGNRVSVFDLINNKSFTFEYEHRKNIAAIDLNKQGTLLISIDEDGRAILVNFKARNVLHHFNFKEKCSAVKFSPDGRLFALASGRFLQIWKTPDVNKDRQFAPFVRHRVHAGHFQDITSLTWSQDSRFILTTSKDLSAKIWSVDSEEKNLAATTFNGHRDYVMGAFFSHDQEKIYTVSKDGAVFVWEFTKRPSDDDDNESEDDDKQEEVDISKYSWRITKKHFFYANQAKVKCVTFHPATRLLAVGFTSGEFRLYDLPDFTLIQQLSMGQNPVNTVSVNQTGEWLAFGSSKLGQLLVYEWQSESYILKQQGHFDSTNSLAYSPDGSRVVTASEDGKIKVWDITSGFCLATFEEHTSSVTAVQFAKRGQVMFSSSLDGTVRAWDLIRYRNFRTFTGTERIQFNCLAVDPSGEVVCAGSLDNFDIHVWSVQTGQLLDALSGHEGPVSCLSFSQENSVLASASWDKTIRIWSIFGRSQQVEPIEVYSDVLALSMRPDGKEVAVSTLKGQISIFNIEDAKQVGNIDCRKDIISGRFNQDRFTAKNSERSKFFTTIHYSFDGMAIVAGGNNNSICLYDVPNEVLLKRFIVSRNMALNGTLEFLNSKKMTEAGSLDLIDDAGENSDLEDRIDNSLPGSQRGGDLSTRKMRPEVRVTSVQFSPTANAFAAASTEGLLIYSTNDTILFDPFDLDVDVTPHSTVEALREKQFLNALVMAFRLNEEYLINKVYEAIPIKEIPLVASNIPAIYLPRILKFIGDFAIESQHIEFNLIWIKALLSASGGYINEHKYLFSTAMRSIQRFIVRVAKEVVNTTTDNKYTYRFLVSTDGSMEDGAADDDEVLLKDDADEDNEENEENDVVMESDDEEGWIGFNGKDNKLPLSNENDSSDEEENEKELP
The experiment in a line: affinity purification with mass spectrometry; Pwp2-GFP complexes from Rrp12-depleted cells, gel bands identified by mass spectrometry; compared with control cells.

For the next assay, the target named is T2, Nob1-GFP (S. cerevisiae) (UniProt Q08444).
T2 sequence: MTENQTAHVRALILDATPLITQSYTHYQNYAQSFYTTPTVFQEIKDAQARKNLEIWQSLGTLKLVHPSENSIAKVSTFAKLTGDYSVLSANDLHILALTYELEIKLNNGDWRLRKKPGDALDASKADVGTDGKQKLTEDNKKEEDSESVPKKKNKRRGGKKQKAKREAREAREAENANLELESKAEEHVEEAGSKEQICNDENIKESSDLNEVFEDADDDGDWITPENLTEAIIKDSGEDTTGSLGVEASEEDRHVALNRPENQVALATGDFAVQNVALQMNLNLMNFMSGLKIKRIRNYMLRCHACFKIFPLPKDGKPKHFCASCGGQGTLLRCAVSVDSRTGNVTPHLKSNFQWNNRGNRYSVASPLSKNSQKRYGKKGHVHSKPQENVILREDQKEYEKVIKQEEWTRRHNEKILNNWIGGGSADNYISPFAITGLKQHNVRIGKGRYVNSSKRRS
Kind of assay: affinity purification with mass spectrometry; GFP-tagged baits purified with GFP-Trap from GAL::HA-rrp12 cells shifted to glucose-containing media for 12 hours (Rrp12 depleted; columns 5 to 8).

The next assay concerns the target T3, Tsr1-GFP (S. cerevisiae) (UniProt Q07381).
T3 sequence: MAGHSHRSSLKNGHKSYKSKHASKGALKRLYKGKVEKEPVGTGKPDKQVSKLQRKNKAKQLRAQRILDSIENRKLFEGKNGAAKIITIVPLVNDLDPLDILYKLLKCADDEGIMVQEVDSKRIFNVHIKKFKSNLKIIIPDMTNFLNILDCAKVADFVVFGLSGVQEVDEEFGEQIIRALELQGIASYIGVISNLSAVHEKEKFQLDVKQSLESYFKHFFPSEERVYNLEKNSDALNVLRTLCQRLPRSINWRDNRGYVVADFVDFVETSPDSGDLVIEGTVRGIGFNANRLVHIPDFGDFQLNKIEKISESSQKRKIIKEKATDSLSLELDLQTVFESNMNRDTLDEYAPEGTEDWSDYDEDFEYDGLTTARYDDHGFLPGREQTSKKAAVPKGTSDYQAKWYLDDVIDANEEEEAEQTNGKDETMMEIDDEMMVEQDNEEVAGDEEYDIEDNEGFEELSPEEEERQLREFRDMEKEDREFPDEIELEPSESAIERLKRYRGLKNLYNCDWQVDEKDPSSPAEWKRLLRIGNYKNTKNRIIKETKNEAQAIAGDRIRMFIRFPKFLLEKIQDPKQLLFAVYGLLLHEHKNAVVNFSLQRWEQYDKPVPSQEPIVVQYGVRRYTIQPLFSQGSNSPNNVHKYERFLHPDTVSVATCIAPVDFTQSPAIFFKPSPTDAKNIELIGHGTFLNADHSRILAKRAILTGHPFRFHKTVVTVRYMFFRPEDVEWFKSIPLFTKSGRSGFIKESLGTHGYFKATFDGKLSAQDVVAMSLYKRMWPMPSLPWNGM
Described as above.

In a further assay the target is T4, Enp1-GFP (S. cerevisiae) (UniProt P38333).
T4 sequence: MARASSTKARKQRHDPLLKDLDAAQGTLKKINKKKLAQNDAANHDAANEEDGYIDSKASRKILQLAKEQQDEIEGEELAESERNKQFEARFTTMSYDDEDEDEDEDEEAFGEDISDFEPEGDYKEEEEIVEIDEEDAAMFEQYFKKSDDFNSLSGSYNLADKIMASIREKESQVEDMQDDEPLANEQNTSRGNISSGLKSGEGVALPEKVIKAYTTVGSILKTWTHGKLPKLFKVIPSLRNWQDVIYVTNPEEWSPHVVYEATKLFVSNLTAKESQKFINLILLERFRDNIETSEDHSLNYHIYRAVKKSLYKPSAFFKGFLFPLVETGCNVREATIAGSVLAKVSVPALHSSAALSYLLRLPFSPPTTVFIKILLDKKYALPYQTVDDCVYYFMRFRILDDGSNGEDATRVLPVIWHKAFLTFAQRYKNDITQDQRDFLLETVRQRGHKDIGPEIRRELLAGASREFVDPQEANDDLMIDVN
The assay is described as above.

As for “Dim1 (endogenous) (from UniProt P41819 1-318)”, the binding result in the assay with Pwp2-GFP (S. cerevisiae) is “binds”. Regarding Nop1 (from UniProt P15646 1-327), the binding result in the assay with Nob1-GFP (S. cerevisiae) and with Tsr1-GFP (S. cerevisiae) was “binds” throughout.

B1: Rcl1 (protein, UniProt Q08096 1-367)
chain: MSSSAPKYTTFQGSQNFRLRIVLATLSGKPIKIEKIRSGDLNPGLKDYEVSFLRLIESVTNGSVIEISYTGTTVIYRPGIIVGGASTHICPSSKPVGYFVEPMLYLAPFSKKKFSILFKGITASHNDAGIEAIKWGLMPVMEKFGVRECALHTLKRGSPPLGGGEVHLVVDSLIAQPITMHEIDRPIISSITGVAYSTRVSPSLVNRMIDGAKKVLKNLQCEVNITADVWRGENSGKSPGWGITLVAQSKQKGWSYFAEDIGDAGSIPEELGEKVACQLLEEISKSAAVGRNQLPLAIVYMVIGKEDIGRLRINKEQIDERFIILLRDIKKIFNTEVFLKPVDEADNEDMIATIKGIGFTNTSKKIA
Turning to B1, in the assay with Pwp2-GFP (S. cerevisiae), the binding result is on record as “binds”.

B2: nuclease Rrp44 (protein, UniProt Q08162 1-1001)
chain: MSVPAIAPRRKRLADGLSVTQKVFVRSRNGGATKIVREHYLRSDIPCLSRSCTKCPQIVVPDAQNELPKFILSDSPLELSAPIGKHYVVLDTNVVLQAIDLLENPNCFFDVIVPQIVLDEVRNKSYPVYTRLRTLCRDSDDHKRFIVFHNEFSEHTFVERLPNETINDRNDRAIRKTCQWYSEHLKPYDINVVLVTNDRLNREAATKEVESNIITKSLVQYIELLPNADDIRDSIPQMDSFDKDLERDTFSDFTFPEYYSTARVMGGLKNGVLYQGNIQISEYNFLEGSVSLPRFSKPVLIVGQKNLNRAFNGDQVIVELLPQSEWKAPSSIVLDSEHFDVNDNPDIEAGDDDDNNESSSNTTVISDKQRRLLAKDAMIAQRSKKIQPTAKVVYIQRRSWRQYVGQLAPSSVDPQSSSTQNVFVILMDKCLPKVRIRTRRAAELLDKRIVISIDSWPTTHKYPLGHFVRDLGTIESAQAETEALLLEHDVEYRPFSKKVLECLPAEGHDWKAPTKLDDPEAVSKDPLLTKRKDLRDKLICSIDPPGCVDIDDALHAKKLPNGNWEVGVHIADVTHFVKPGTALDAEGAARGTSVYLVDKRIDMLPMLLGTDLCSLKPYVDRFAFSVIWELDDSANIVNVNFMKSVIRSREAFSYEQAQLRIDDKTQNDELTMGMRALLKLSVKLKQKRLEAGALNLASPEVKVHMDSETSDPNEVEIKKLLATNSLVEEFMLLANISVARKIYDAFPQTAMLRRHAAPPSTNFEILNEMLNTRKNMSISLESSKALADSLDRCVDPEDPYFNTLVRIMSTRCMMAAQYFYSGAYSYPDFRHYGLAVDIYTHFTSPIRRYCDVVAHRQLAGAIGYEPLSLTHRDKNKMDMICRNINRKHRNAQFAGRASIEYYVGQVMRNNESTETGYVIKVFNNGIVVLVPKFGVEGLIRLDNLTEDPNSAAFDEVEYKLTFVPTNSDKPRDVYVFDKVEVQVRSVMDPITSKRKAELLLK
As for B2, the binding entry in the assay with Pwp2-GFP (S. cerevisiae) was “binds”.

B3: tRNA methyltransferase Ncl1 (protein, UniProt P38205 1-684)
chain: MARRKNFKKGNKKTFGARDDSRAQKNWSELVKENEKWEKYYKTLALFPEDQWEEFKKTCQAPLPLTFRITGSRKHAGEVLNLFKERHLPNLTNVEFEGEKIKAPVELPWYPDHLAWQLDVPKTVIRKNEQFAKTQRFLVVENAVGNISRQEAVSMIPPIVLEVKPHHTVLDMCAAPGSKTAQLIEALHKDTDEPSGFVVANDADARRSHMLVHQLKRLNSANLMVVNHDAQFFPRIRLHGNSNNKNDVLKFDRILCDVPCSGDGTMRKNVNVWKDWNTQAGLGLHAVQLNILNRGLHLLKNNGRLVYSTCSLNPIENEAVVAEALRKWGDKIRLVNCDDKLPGLIRSKGVSKWPVYDRNLTEKTKGDEGTLDSFFSPSEEEASKFNLQNCMRVYPHQQNTGGFFITVFEKVEDSTEAATEKLSSETPALESEGPQTKKIKVEEVQKKERLPRDANEEPFVFVDPQHEALKVCWDFYGIDNIFDRNTCLVRNATGEPTRVVYTVCPALKDVIQANDDRLKIIYSGVKLFVSQRSDIECSWRIQSESLPIMKHHMKSNRIVEANLEMLKHLLIESFPNFDDIRSKNIDNDFVEKMTKLSSGCAFIDVSRNDPAKENLFLPVWKGNKCINLMVCKEDTHELLYRIFGIDANAKATPSAEEKEKEKETTESPAETTTGTSTEAPSAAN
On to B3, for which the binding entry with Enp1-GFP (S. cerevisiae) and with Tsr1-GFP (S. cerevisiae) was “binds” in each case.
